Out of some 1,400 compounds screened, about 140 (10%) were called active.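 Rule for the calls: active = Half-maximal inhibitory dose from the fit at or below ten times the top valid tested dose; inconclusive = Invalid fit, or flat curve showing 30 to 70% inhibition; inactive = the rest.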 The list shows a part of the results, in another mix than the full data. Potency and affinity values are given separately.
target: Lysine-specific demethylase 4C (Homo sapiens) (UniProt Q9H3R0); experiment: GASC-1 (JMJD2C) histone demethylase inhibitors, dose response, biochemical, DELFIA europium, cherry-picked samples (AID 488835); details: GST-JMJD2C(1-420), H3K9me3 demethylation; at 6 µM (top of the series) unless noted;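 note: signal is the H3K9me2 demethylation product detected by a dimethyl-specific antibody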

Amino acid sequences for entries named in this document (tags omitted). Residues count along the entry.
UniProt Q9H3R0, 1-420 limits assumed: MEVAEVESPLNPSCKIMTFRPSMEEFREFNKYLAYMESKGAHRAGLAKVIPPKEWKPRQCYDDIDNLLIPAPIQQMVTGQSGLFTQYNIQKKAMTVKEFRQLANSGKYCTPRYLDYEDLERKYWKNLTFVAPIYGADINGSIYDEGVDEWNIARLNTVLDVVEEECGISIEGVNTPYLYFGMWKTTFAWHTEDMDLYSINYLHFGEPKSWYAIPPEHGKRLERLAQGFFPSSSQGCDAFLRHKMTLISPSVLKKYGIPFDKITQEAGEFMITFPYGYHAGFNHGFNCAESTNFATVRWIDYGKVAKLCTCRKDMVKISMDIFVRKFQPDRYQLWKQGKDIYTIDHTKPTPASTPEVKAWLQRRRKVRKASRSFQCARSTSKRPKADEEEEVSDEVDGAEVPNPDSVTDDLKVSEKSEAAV

Activity change, negative = inhibition, inactive:
CCOCCCNC(=O)c1c[nH]c2ccc(C)cc2c1=O -1.72%, C=CCc1c(C)nc(SC(C)C)[nH]c1=O 5.84%, O=C(N/N=C/c1ccc([N+](=O)[O-])o1)c1cn(-c2ccccc2)nc1-c1ccc(F)cc1 -0.632%, O=C(c1ccsc1)N1CCN(C(=O)c2cccs2)CC1 2.81%, COc1ccc(S(=O)(=O)Nc2ccc3c(c2)C(=O)N([C@H](C)CO)C[C@H](C)[C@H](CN(C)Cc2ccc(C(=O)O)cc2)O3)cc1 8.66%, COc1ccc(NC(=O)NCCCCc2ccccc2)c(OC)c1 -0.647%, CCc1ccc2oc(=O)cc(CN3CCOCC3)c2c1 5.79%, COc1cccc(/C=C/C(=O)OCC(=O)Nc2cccc(S(=O)(=O)N(C)C)c2)c1 5.47%, CS(=O)(=O)c1ccccc1-c1csc(N2CCC(C(N)=O)CC2)n1 -1.15% [at 1.6 µM], CC(C)N(Cc1ccccc1)C(=O)COC(=O)c1ccc2c(c1)OCCO2 8.53%, Oc1ccccc1N1CCN(C(=S)NCc2ccccc2)CC1 3.28%, CCC(C)(C)n1nnnc1CN1CCc2ccccc21 2.23%, CCOC(=O)C1=C(c2ccccc2)NC(=O)NC1c1ccc(O)c(OCC)c1 (stereo unspecified) 0.617%, Nc1cc(OC(=O)c2ccccc2Br)nn1S(=O)(=O)c1ccccc1 4.46%, CN(CCCNC(=O)CSc1cc(=O)n(C)c2ccc(Cl)cc12)Cc1ccccc1 -0.557%, C=CCNC(=S)NNC(=O)COc1cccc(Cl)c1 2.43%, Cc1ccc(NC(=O)COC(=O)c2ccco2)cc1S(=O)(=O)N1CCOCC1 -1.53%, CCn1c(SCC(=O)NCc2ccco2)nnc1-c1cccs1 -0.879%, O=C(NCc1nnc(SCC(=O)N2CCCCC2)o1)c1c(F)cccc1F 3.3%, O=C1CC(N2CCC(O)(c3ccc(Cl)cc3)CC2)C(=O)N1Cc1ccc(N2CCCC2=O)cc1 (stereo unspecified) 11.4%, Cn1nc(NC(=O)C(C)(C)C)c2c(F)cccc21 1.57%, CCCS(=O)(=O)N1CCN(S(=O)(=O)c2ccccc2[N+](=O)[O-])CC1 9.99%, O=c1[nH]cnc2c1c(-c1ccccc1)cn2-c1ccccc1 5.51%, Clc1cccc(Cl)c1Cn1c(-c2cccnc2Cl)nc2ccccc21 5.67%, CC(=O)C(Sc1nc(N2CCOCC2)nc(N2CCOCC2)n1)C(=O)Nc1ccccc1 (stereo unspecified) 3.53%, COc1cc(S(=O)(=O)N(Cc2cccs2)CC2CCCO2)ccc1-n1cnnn1 (stereo unspecified) -8.7%, COc1ccc(OCC(=O)N2CCC3(CC2)CC(=O)c2ccccc2O3)cc1 12.9%, NC(=O)COc1cccc2cccnc12 3.24%, COc1ccc(CCNC(=O)c2ccc3c(c2)NC(=O)C(N2CCOCC2)S3)cc1OC (stereo unspecified) -0.672%, CC(C)NC(=O)Nc1cccc2c1O[C@H](CN(C)C(=O)NC1CCCCC1)[C@H](C)CN([C@H](C)CO)C2=O -3.03%, O=C(Nc1cccc(Cl)c1)NC1CCN(C2CCCCC2)C1 (stereo unspecified) 4.68%, Cc1ccc(S(=O)(=O)Nc2ccc3c(c2)C(=O)N([C@H](C)CO)C[C@H](C)[C@@H](CN(C)Cc2ccccc2)O3)cc1 9.34%, CSc1nc(N)nc2c1ncn2CC(=O)NCCNc1ccc([N+](=O)[O-])cn1 -0.036%, CNCCNC[C@H](Cc1cccc2ccccc12)NCCc1ccccc1 0.39%, COc1ccccc1N1CCN(c2nc3c(C)cccn3c(=O)c2C=O)CC1 -0.776%, COC(=O)CSC1=C(C#N)C(c2ccsc2)CC(=O)N1 (stereo unspecified) -0.00107%, C/C(=N\NC(=O)c1ccncc1)c1ccc(N(C)C)cc1 0.615%, CC[C@@H]1CCCCc2ccccc2[C@@H](C(=O)C[C@@H](O)CC(C)=O)OC1=O 1.94%, Cc1ccc(NC2=NCC(=O)N2Cc2ccc3c(c2)OCO3)c(C)c1 -0.634%, CCCC(CCC)C(=O)Nc1cccc(-c2cn3c(n2)SCC3)c1 8.47%, COc1cccc(NC(=O)N2CCN(c3cccc(C)c3)C(C)C2)c1 (stereo unspecified) 8.49%, O=c1c(O)cccc2cc(O)c(O)c(O)c12 -50%, Fc1ccc(-c2csc(Nc3ccccn3)n2)cc1 -16.8%, O=C(Cc1sc(-c2ccccc2)nc1-c1ccccc1)Nc1ccccc1 2.22%, COc1ccc(CC(=O)Nc2ccc(/C(C)=N/NC(=O)c3cccc([N+](=O)[O-])c3)cc2)cc1 -4.82%, CCOc1cccc(C2C(C(=O)c3ccco3)=C(O)C(=O)N2Cc2ccncc2)c1 (stereo unspecified) -1.49%, O=C(CSc1nnc(CNC(=O)c2cccs2)o1)c1ccccc1 3.92%, Cc1ccc(/C=N\NC(=O)c2cc([N+](=O)[O-])cc([N+](=O)[O-])c2)o1 5.01%, O=C(O)CCCNC(=O)c1cccc(C(=O)NCCCC(=O)O)n1 0.42%, O=[N+]([O-])c1ccccc1N/N=C\c1ccccc1Cl -1.36%, O=C(COC(=O)C1(c2ccccc2F)CCCC1)Nc1ncc(C(F)(F)F)cc1Cl -1.64%, Cc1ccc(S(=O)(=O)N2[C@@H](c3ccc(Cl)c(Cl)c3)C(C(=O)O)=C[C@H]2C(C)(C)C)cc1 0.0975%, CCCCNC(=O)OCCNC(=O)Oc1cccc(C)c1 4.46%, Cc1ccc(OC(=O)c2ccc3nc(C)sc3c2)cc1 -0.0189%, COc1ccc(C)cc1NC(=O)CN(C)S(=O)(=O)c1ccc2c(c1)CC(C)N2C(C)=O (stereo unspecified) -0.962%, CNC(=O)C1=NCCCc2cc(OC)c(OC)cc21 2.61%, Cc1cccc(C(=O)N/N=C/C(C)Cc2ccc3c(c2)OCO3)c1 (stereo unspecified) -0.865%, C[C@H]1CN([C@@H](C)CO)C(=O)Cc2cc(NS(=O)(=O)c3cccs3)ccc2O[C@H]1CN(C)S(=O)(=O)c1cn(C)cn1 6.73%, Cc1nn(C)c(N)c1C(O)(c1nccn1C)C(F)(F)F (stereo unspecified) -4.61%, Cc1ccc(OCC(=O)Nc2ccccc2Sc2ccccc2)c([N+](=O)[O-])n1 -9.33%, COc1cccc(CNC(=O)c2cc3c(cc2Cl)N2CCCCCC2=NS3(=O)=O)c1 3.42%, CC1(C)[N+]([O-])=C2C(=[N+]([O-])C1(C)C)c1ccccc1/C2=N\O 4.53%, CC1CCN(c2ccc3c(c2)S(=O)(=O)c2cccc(C(=O)NC4CC4)c2C3=O)CC1 7.81%, Cc1ccc2c(c1)c1c3n2CCCNC3CCC1 (stereo unspecified) -1.03%, CC(C)(C)c1ccc(C(=O)N2CCC(C(=O)NCc3ccncc3)CC2)cc1 1.33%, COc1cc2c(cc1OC)CN(C(=O)CSc1n[nH]c(N)n1)CC2 1.23%, CC(=O)C[C@@H](O)CC(=O)[C@H]1OC(=O)[C@H](C)CCCCc2ccccc21 -11%, CC(NC(=O)CCC(=O)c1ccc(F)cc1)C1CC2CCC1C2 (stereo unspecified) -1.93%, CCN1C(=O)C(CC(=O)Nc2ccc(OC)cc2)N(CCc2ccccc2F)C1=S (stereo unspecified) -7.78%, CC1(C)C2CCC1(CS(=O)(=O)N1CCN(c3ccccc3F)CC1)C(=O)C2 (stereo unspecified) 5.48%, O=C(Nc1cccc2ccccc12)OC1C=CS(=O)(=O)C1 (stereo unspecified) 3.86%, Cc1ccc(C(=O)N2CCN(c3ccc(Cl)cc3)CC2)cc1 1.79%, COC(=O)[C@]1(Cc2ccccc2)N[C@H](CN(C)S(=O)(=O)c2ccc(F)cc2)[C@@H]2C(=O)N(Cc3ccccc3)C(=O)[C@@H]21 0.316%, Cc1ccc2c(c1)C(=O)N1[C@H]3c4cc(Cl)ccc4OC[C@@H]3[C@H](c3ccccc3)[C@]1(C)C(=O)N2 3.11%, CCCCCCn1c(=O)[nH]c2nc3cc(N)ccc3nc2c1=O -3.56% [at 1.6 µM], Cc1ccc(CSc2ncnc3onc(C)c23)cc1 1.62%, C[C@@H]1CCCCCCCCC(=O)OCCN(C(=O)OC(C)(C)C)[C@H](C)CCCCCCCCC(=O)OCCN(C(=O)OC(C)(C)C)[C@H](C)CCCCCCCCC(=O)OCCN1C(=O)OC(C)(C)C 13.4%, C[C@]12c3[nH]c4ccccc4c3CCN1C(=O)C(CC(=O)NCCN1CCOCC1)C[C@@H]2C(=O)N1CCCCC1 (stereo partly specified) -4.06%, COc1cccc(/C=C/C(=O)NCCc2ccc(OC)c(OC)c2)c1 -4.6%, COC(=O)C1=C(C)N(Cc2ccccc2)C(=NCCc2c[nH]c3ccccc23)N[C@H]1c1ccccc1 1.9%, CNC(=O)/C(C#N)=C/c1c(N(Cc2ccccc2)Cc2ccccc2)nc2ccccn2c1=O -4.61% [at 1.6 µM], CCC(C)NCCCOc1ccc(C)cc1OC (stereo unspecified) -7.61%, COC(=O)c1ccccc1NC(=O)CC(NCc1ccccc1)C(=O)O (stereo unspecified) -0.478%, CCn1nnc(NC(=O)c2cc3ccccc3o2)n1 -8.7%, CC(=O)C[C@@H](O)CC(=O)[C@@H]1OC(=O)[C@@H](C)C/C=C\Cc2ccccc21 -0.136%, CSCCC(NS(=O)(=O)c1ccc2ccccc2c1)C(=O)O (stereo unspecified) 2.69%

Source: PubChem BioAssay AID488835 (Broad Institute, 2010)
